# Source: patent publication US20140186363A1
# B1: 122G3 (antibody, V domains shown)
# VH: QVQLVQSGAEVKKPGASVKVSCKASGYTFTNYAIHWVRQAPGQRLEWMGWINAGKGNTKYSQKFQGRVTITRDTSADTTYMELSSLRSEDTAVYFCAQAGLSSGLYRDYWGQGTPVTVSS
# VL: EIVMTQSPATLSVSPGERATLSCRASQSVSSDLAWYQQKRGQAPRLLIYGASTRATGIPARFSGSGSGTEFTLTISSLQSEDFAVYWCQQYNDWPLTFGGGTKVEIN
# Target: DHFR
# Test: ELISA, plates coated with recombinantly expressed antigen
binder,measurement,value
B1,binding,no binding

# These are yes or no findings as the source states them, for the method shown.
